Values from PubChem BioAssay AID1259308 (NCATS, 2017).

Aim: 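Genes whose loss raises luciferase production in HEK293 cells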 (primary screen)
System: human HEK293 embryonic kidney cells stably expressing firefly luciferase (HEK-CMV-Luc2-Hygro)
Reagents: single siRNA against human genes, 0.8 pmol siRNA per well
Duration: 72 h
Measured: 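Reporter luminescence and viable-cell signal on separate replicate plates, given as percent of non-targeting control and median/MAD z-scores, plus per-cell luciferase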
Reading the numbers: total luciferase, z-score and total luciferase, % of control: higher = more reporter protein produced; luciferase per cell, z-score: higher = more reporter output per viable cell; viable cells, % of control: higher = more viable cells
Active means: 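Active when the median/MAD z-score for overall luciferase is greater than 3; a gene was taken forward for validation with new siRNAs if at least two of its three siRNAs passed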
Calls: active = raised luciferase; inactive = no rise
The deposit covers about 59,000 reagents; below is a part drawn at random. Of all reagents, about 1,510 (2.6%) got an active call. 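Calls use total luciferase alone and ignore viability, so some active siRNAs may act by altering cell number.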 Reagents against one gene are numbered here. Reagent sequences are not shown.

gene	reagent	total luciferase, z-score	total luciferase, % of control	luciferase per cell, z-score	viable cells, % of control	Call
CLPS (colipase)	1	0.37	89.3	-0.185	105	inactive
CLPS (colipase)	2	-1.57	50.6	-1.48	83.4	inactive
CLPS (colipase)	3	-0.229	77.3	-0.454	97.4	inactive
FAM135A (family with sequence similarity 135 member A)	1	-0.665	68.7	-0.945	98.4	inactive
FAM135A (family with sequence similarity 135 member A)	2	-1.38	54.5	-0.288	65.7	inactive
FAM135A (family with sequence similarity 135 member A)	3	-0.0549	80.8	0.272	84	inactive
LAMA4 (laminin subunit alpha 4)	1	0.254	86.9	-0.0652	98.8	inactive
LAMA4 (laminin subunit alpha 4)	2	-0.705	67.9	-1.37	109	inactive
LAMA4 (laminin subunit alpha 4)	3	0.455	90.9	0.176	97	inactive
RFTN2 (raftlin family member 2)	1	0.215	86.2	-0.051	97.6	inactive
RFTN2 (raftlin family member 2)	2	0.305	88	0.292	91	inactive
RFTN2 (raftlin family member 2)	3	0.247	86.8	-0.0812	99.1	inactive
MARCHF10 (membrane associated ring-CH-type finger 10)	1	0.48	91.4	-0.162	107	inactive
MARCHF10 (membrane associated ring-CH-type finger 10)	2	1.77	117	2.08	75.8	inactive
MARCHF10 (membrane associated ring-CH-type finger 10)	3	0.118	84.2	0.653	79.2	inactive
KCNK5 (potassium two pore domain channel subfamily K member 5)	1	0.324	88.3	-0.181	104	inactive
KCNK5 (potassium two pore domain channel subfamily K member 5)	2	-0.989	62.2	-1.14	93.9	inactive
KCNK5 (potassium two pore domain channel subfamily K member 5)	3	-0.957	62.9	0.826	56.5	inactive
PLIN1 (perilipin 1)	1	0.296	87.8	-0.456	111	inactive
PLIN1 (perilipin 1)	2	0.504	91.9	0.0993	100	inactive
PLIN1 (perilipin 1)	3	0.644	94.7	0.822	85.2	inactive
UBAP2L (ubiquitin associated protein 2 like)	1	-0.199	77.9	-0.0253	87.7	inactive
UBAP2L (ubiquitin associated protein 2 like)	2	0.82	98.2	0.517	95.8	inactive
UBAP2L (ubiquitin associated protein 2 like)	3	1.05	103	0.642	97	inactive
SCML4 (Scm polycomb group protein like 4)	1	1.03	102	0.873	90.9	inactive
SCML4 (Scm polycomb group protein like 4)	2	-1.63	49.5	-1.27	77.3	inactive
SCML4 (Scm polycomb group protein like 4)	3	3.02	142	1.76	99.8	active

Entries listed so far marked active (1):
gene	reagent	total luciferase, z-score	total luciferase, % of control	luciferase per cell, z-score	viable cells, % of control	Call
SCML4 (Scm polycomb group protein like 4)	3	3.02	142	1.76	99.8	active

Additional reagents:
gene	reagent	total luciferase, z-score	total luciferase, % of control	luciferase per cell, z-score	viable cells, % of control	Call
AKIRIN2 (akirin 2)	1	0.978	101	2.02	66.5	inactive
AKIRIN2 (akirin 2)	2	0.185	85.6	0.551	82.7	inactive
AKIRIN2 (akirin 2)	3	-0.225	77.4	0.511	75.6	inactive
FOXJ1 (forkhead box J1)	1	0.0185	82.3	-0.566	107	inactive
FOXJ1 (forkhead box J1)	2	-1.95	43	-2.27	87.4	inactive
FOXJ1 (forkhead box J1)	3	0.208	86	-0.452	108	inactive
HPD (4-hydroxyphenylpyruvate dioxygenase)	1	-0.366	74.6	-0.178	87.4	inactive
HPD (4-hydroxyphenylpyruvate dioxygenase)	2	-1.51	51.8	-1.31	81.6	inactive
HPD (4-hydroxyphenylpyruvate dioxygenase)	3	0.405	89.9	0.494	88.3	inactive
TMEM257 (retired record)	1	0.675	95.3	0.291	98.6	inactive
TMEM257 (retired record)	2	1.86	119	1.95	79.5	inactive
TMEM257 (retired record)	3	1.33	108	1.43	83.1	inactive
CFAP65 (cilia and flagella associated protein 65)	1	-1.45	53	-0.81	73.3	inactive
CFAP65 (cilia and flagella associated protein 65)	2	1.17	105	0.955	91.4	inactive
CFAP65 (cilia and flagella associated protein 65)	3	0.487	91.6	1.03	78.1	inactive
PPIAP55 (peptidylprolyl isomerase A pseudogene 55)	1	0.0607	83.1	-0.386	103	inactive
PPIAP55 (peptidylprolyl isomerase A pseudogene 55)	2	-0.691	68.1	-0.332	83.1	inactive
PPIAP55 (peptidylprolyl isomerase A pseudogene 55)	3	-0.367	74.6	-0.754	102	inactive
NUDCD3 (NudC domain containing 3)	1	1.03	102	1.04	87	inactive
NUDCD3 (NudC domain containing 3)	2	-0.355	74.8	0.0164	83.3	inactive
NUDCD3 (NudC domain containing 3)	3	-1.97	42.7	-1.9	78.8	inactive
CDKN2D (cyclin dependent kinase inhibitor 2D)	1	-0.279	76.3	-0.537	98.3	inactive
CDKN2D (cyclin dependent kinase inhibitor 2D)	2	-0.904	63.9	-0.948	91.7	inactive
CDKN2D (cyclin dependent kinase inhibitor 2D)	3	-1.29	56.2	-1.5	93.3	inactive
HMGCR (3-hydroxy-3-methylglutaryl-CoA reductase)	1	-1.28	56.3	-1.61	96.3	inactive
HMGCR (3-hydroxy-3-methylglutaryl-CoA reductase)	2	-0.321	75.5	0.0428	83.4	inactive
HMGCR (3-hydroxy-3-methylglutaryl-CoA reductase)	3	0.0501	82.9	-0.645	110	inactive
TSPAN4 (tetraspanin 4)	1	1.33	108	1.2	88.2	inactive
TSPAN4 (tetraspanin 4)	2	-0.00503	81.8	0.708	75.8	inactive
TSPAN4 (tetraspanin 4)	3	-0.235	77.2	-1.1	115	inactive
